{"source": "PubChem BioAssay AID1159578 (Peter MacCallum Cancer Centre, 2015)", "assay": "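Knock-downs that alter how fast lymphatic endothelial cells migrate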 (primary screen)", "cell system": "human lymphatic endothelial cells", "reagent": "siRNA pool against human genes, 40 nM", "duration": "48 h after transfection", "measured": "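High-content imaging of dye-stained cells in a scratch assay measures filled wound area and nuclei per well; duplicate means given as ratio to mock and robust z-score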", "direction": "migration robust z-score: higher = faster migration into the scratch; nuclei per well: higher = more cells in the well", "active means": "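Migration changed when robust z exceeds 2 or falls below -2 and mean nuclei number is at least 3300; otherwise not called changed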", "meaning of the calls": "active = migration changed; inactive = no migration change, or too few cells", "note": "In all, the deposit lists about 18,000 reagents; this is a part drawn at random. About 1,030 of them (5.7%) count as active. 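Inactive calls also include pools with fewer than 3300 nuclei, whose migration was not assessed.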 Raw values vary from plate to plate and are shown uncorrected. Further read-outs or replicates are left out here."}
{"Gene": "RPRD1A (regulation of nuclear pre-mRNA domain containing 1A)", "migration robust z-score": 1.38, "migration class with cell-count check": "migration z between -2 and 2; enough cells", "nuclei per well, duplicate mean": 4903, "Call": "inactive"}
{"Gene": "PTGER3 (prostaglandin E receptor 3)", "migration robust z-score": 0.16, "migration class with cell-count check": "migration z between -2 and 2; enough cells", "nuclei per well, duplicate mean": 6188, "Call": "inactive"}
{"Gene": "NOX4 (NADPH oxidase 4)", "migration robust z-score": 1.12, "migration class with cell-count check": "migration z between -2 and 2; enough cells", "nuclei per well, duplicate mean": 7318, "Call": "inactive"}
{"Gene": "SYBU (syntabulin)", "migration robust z-score": 1.43, "migration class with cell-count check": "migration z between -2 and 2; enough cells", "nuclei per well, duplicate mean": 5848, "Call": "inactive"}
{"Gene": "EPHB3 (EPH receptor B3)", "migration robust z-score": 1.4, "migration class with cell-count check": "migration z between -2 and 2; enough cells", "nuclei per well, duplicate mean": 5029, "Call": "inactive"}
{"Gene": "CXCL5 (C-X-C motif chemokine ligand 5)", "migration robust z-score": -0.34, "migration class with cell-count check": "migration z between -2 and 2; enough cells", "nuclei per well, duplicate mean": 6246, "Call": "inactive"}
{"Gene": "AGMO (alkylglycerol monooxygenase)", "migration robust z-score": 0.86, "migration class with cell-count check": "migration z between -2 and 2; enough cells", "nuclei per well, duplicate mean": 6658, "Call": "inactive"}
{"Gene": "CYP4Z1 (cytochrome P450 family 4 subfamily Z member 1)", "migration robust z-score": 1.74, "migration class with cell-count check": "migration z between -2 and 2; enough cells", "nuclei per well, duplicate mean": 5578, "Call": "inactive"}
{"Gene": "TGFB1 (transforming growth factor beta 1)", "migration robust z-score": 0.24, "migration class with cell-count check": "migration z between -2 and 2; enough cells", "nuclei per well, duplicate mean": 5005, "Call": "inactive"}
{"Gene": "SPATA31G1 (SPATA31 subfamily G member 1)", "migration robust z-score": 0.19, "migration class with cell-count check": "migration z between -2 and 2; enough cells", "nuclei per well, duplicate mean": 5492, "Call": "inactive"}
{"Gene": "FBXO32 (F-box protein 32)", "migration robust z-score": 1.4, "migration class with cell-count check": "migration z between -2 and 2; enough cells", "nuclei per well, duplicate mean": 5724, "Call": "inactive"}
{"Gene": "THAP5 (THAP domain containing 5)", "migration robust z-score": 0.4, "migration class with cell-count check": "migration z between -2 and 2; enough cells", "nuclei per well, duplicate mean": 5353, "Call": "inactive"}
{"Gene": "RNF6 (ring finger protein 6)", "migration robust z-score": 0.29, "migration class with cell-count check": "migration z between -2 and 2; enough cells", "nuclei per well, duplicate mean": 5020, "Call": "inactive"}
{"Gene": "UBA5 (ubiquitin like modifier activating enzyme 5)", "migration robust z-score": -0.67, "migration class with cell-count check": "migration z between -2 and 2; enough cells", "nuclei per well, duplicate mean": 4384, "Call": "inactive"}
{"Gene": "EFTUD2 (elongation factor Tu GTP binding domain containing 2)", "migration robust z-score": -1.69, "migration class with cell-count check": "migration z between -2 and 2; enough cells", "nuclei per well, duplicate mean": 4984, "Call": "inactive"}
{"Gene": "TOP3B (DNA topoisomerase III beta)", "migration robust z-score": -0.22, "migration class with cell-count check": "migration z between -2 and 2; enough cells", "nuclei per well, duplicate mean": 6916, "Call": "inactive"}
{"Gene": "MAGEC3 (MAGE family member C3)", "migration robust z-score": 0.16, "migration class with cell-count check": "migration z between -2 and 2; enough cells", "nuclei per well, duplicate mean": 5576, "Call": "inactive"}
{"Gene": "PMPCA (peptidase, mitochondrial processing subunit alpha)", "migration robust z-score": 1.48, "migration class with cell-count check": "migration z between -2 and 2; enough cells", "nuclei per well, duplicate mean": 5602, "Call": "inactive"}
{"Gene": "SIGLEC11 (sialic acid binding Ig like lectin 11)", "migration robust z-score": 1.37, "migration class with cell-count check": "migration z between -2 and 2; enough cells", "nuclei per well, duplicate mean": 4926, "Call": "inactive"}
{"Gene": "GLCCI1 (glucocorticoid induced 1)", "migration robust z-score": -0.93, "migration class with cell-count check": "migration z between -2 and 2; enough cells", "nuclei per well, duplicate mean": 4310, "Call": "inactive"}
{"Gene": "RETREG2 (reticulophagy regulator family member 2)", "migration robust z-score": -0.48, "migration class with cell-count check": "migration z between -2 and 2; enough cells", "nuclei per well, duplicate mean": 5400, "Call": "inactive"}

Targets listed so far whose gene name begins with P or p (2):
{"Gene": "PTGER3 (prostaglandin E receptor 3)", "migration robust z-score": 0.16, "migration class with cell-count check": "migration z between -2 and 2; enough cells", "nuclei per well, duplicate mean": 6188, "Call": "inactive"}
{"Gene": "PMPCA (peptidase, mitochondrial processing subunit alpha)", "migration robust z-score": 1.48, "migration class with cell-count check": "migration z between -2 and 2; enough cells", "nuclei per well, duplicate mean": 5602, "Call": "inactive"}
